In PMC10132805:
Results are given in words; binding and its absence hold for the method and conditions named. Binding seen in cells or lysates may run through a third protein. Some results given as binding are weak or reduced against the parent protein; the word gives no strength. For part of these data: Sequences can lack the tags named with a protein.

Amino acid sequences for entries named in this document (tags omitted). Residues count along the entry.
UniProt Q96CW1, residues 170-434: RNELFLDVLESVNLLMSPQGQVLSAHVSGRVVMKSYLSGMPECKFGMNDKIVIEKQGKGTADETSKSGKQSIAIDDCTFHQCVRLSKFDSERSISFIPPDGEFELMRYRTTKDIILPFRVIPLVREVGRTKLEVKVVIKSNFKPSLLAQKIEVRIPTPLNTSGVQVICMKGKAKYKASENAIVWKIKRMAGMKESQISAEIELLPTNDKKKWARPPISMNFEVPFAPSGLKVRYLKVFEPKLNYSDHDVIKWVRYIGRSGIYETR
UniProt P11940, residues 544-623: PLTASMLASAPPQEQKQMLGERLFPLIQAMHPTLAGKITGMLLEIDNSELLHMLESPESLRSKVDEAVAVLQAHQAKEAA
UniProt P18272: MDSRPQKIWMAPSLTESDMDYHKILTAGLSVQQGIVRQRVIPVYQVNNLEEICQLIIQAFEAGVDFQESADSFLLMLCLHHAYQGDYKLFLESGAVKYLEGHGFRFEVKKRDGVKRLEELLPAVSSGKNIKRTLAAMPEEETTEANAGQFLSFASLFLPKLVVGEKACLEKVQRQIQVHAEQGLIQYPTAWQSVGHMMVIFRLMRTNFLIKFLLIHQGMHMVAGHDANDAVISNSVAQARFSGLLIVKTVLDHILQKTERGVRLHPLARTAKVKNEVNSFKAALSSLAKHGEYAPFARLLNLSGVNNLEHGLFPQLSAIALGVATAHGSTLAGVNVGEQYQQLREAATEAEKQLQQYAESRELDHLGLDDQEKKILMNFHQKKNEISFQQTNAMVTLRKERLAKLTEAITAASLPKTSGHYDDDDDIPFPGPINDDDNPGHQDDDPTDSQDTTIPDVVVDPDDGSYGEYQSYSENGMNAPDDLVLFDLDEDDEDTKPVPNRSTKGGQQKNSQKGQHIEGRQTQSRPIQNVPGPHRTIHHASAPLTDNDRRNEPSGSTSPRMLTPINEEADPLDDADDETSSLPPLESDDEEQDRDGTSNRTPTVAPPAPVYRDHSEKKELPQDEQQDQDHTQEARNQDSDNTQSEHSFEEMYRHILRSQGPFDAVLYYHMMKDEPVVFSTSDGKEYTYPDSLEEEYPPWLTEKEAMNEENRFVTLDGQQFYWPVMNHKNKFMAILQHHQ
UniProt O55778: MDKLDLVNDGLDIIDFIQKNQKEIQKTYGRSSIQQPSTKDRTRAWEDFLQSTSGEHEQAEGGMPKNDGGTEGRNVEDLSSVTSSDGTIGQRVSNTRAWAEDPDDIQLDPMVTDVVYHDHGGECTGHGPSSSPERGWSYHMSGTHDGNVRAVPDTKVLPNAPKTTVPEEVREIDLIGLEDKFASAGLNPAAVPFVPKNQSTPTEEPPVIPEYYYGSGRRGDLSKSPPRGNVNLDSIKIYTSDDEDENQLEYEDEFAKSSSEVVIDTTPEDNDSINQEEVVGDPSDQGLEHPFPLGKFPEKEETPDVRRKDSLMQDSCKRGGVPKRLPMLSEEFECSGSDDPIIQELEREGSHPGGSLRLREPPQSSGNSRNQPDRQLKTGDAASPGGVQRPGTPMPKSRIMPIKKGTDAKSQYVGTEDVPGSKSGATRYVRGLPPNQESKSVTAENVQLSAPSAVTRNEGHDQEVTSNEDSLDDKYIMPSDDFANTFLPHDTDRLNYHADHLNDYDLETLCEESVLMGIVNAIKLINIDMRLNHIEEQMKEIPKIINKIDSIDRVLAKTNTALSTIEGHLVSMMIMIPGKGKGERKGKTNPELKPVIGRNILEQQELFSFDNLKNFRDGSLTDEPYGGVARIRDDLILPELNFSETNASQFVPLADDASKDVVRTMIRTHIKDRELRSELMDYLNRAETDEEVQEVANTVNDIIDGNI

Assays:
Test in all cases: pull-down; only the target purified
[1] = molecular target: T1, GST-tagged GAE domain of GGA3 (human) (UniProt Q9NZ52)
T1 sequence: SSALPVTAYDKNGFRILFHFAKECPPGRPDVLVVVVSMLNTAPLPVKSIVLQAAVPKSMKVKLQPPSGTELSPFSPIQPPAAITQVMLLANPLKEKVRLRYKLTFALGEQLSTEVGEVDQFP

[2] = molecular target: GST-tagged Mu homology domain of the AP-2 subunit mu (human) (UniProt Q96CW1)
[3] = molecular target: GST-tagged C terminal domain of polyadenylate-binding protein 1 (human) (UniProt P11940)

Substance | binding [1] | binding [2] | binding [3]
nucleoprotein (NP) from Zaire ebolavirus (ZEBOV), full length, Flag-tagged (from UniProt P18272 1-739) | binds | binds | 
P (HeV) wt, full length, Flag-tagged (from UniProt O55778 1-707) |  |  | binds
